Measurements: article PMC10177021
No constants are given. Whether binding was seen depends on the method and setting. Binding seen in cells or lysates may run through a third protein. Here binding means that the protein was enriched with, or labelled near, the bait; the list need not be complete.

Amino acid sequences for entries named in this document (tags omitted). A change or cut given only in a name is not applied to a line headed by its entry. Residues count along the entry.
UniProt P97772, residues 21-1199: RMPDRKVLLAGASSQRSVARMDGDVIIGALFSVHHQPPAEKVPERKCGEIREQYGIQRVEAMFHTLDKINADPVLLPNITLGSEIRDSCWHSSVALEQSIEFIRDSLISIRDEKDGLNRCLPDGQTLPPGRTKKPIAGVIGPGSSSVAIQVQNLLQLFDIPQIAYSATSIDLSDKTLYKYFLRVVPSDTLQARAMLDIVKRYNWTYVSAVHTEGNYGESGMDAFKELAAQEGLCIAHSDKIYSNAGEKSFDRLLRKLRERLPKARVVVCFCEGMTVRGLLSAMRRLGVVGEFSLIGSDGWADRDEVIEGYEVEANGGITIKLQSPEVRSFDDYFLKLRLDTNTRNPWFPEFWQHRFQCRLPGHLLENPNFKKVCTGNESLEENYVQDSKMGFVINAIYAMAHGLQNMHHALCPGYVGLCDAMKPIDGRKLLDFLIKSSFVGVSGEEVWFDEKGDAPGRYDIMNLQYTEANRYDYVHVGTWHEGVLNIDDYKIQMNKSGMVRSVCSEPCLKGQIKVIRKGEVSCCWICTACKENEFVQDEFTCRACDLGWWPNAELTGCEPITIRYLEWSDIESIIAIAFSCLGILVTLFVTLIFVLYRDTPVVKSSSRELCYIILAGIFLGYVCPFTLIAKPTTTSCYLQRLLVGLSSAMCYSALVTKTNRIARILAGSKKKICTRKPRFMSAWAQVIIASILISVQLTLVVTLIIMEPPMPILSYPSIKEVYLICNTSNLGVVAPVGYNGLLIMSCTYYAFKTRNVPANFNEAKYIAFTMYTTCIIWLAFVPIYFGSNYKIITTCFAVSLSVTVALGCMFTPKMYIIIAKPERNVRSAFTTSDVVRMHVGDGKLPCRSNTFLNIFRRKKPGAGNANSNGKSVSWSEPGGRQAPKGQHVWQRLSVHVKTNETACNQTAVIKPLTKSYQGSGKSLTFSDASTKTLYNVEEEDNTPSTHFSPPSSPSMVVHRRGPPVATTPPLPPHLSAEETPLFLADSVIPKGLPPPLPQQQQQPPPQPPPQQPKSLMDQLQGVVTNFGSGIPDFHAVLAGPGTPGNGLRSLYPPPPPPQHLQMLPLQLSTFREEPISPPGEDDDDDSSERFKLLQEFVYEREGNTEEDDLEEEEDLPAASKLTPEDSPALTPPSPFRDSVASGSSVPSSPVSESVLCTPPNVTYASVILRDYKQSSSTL

Molecular target: metabotropic glutamate receptor 1, mGlu1α variant (mouse (endogenous in cerebellum)) (UniProt P97772)
Test: affinity purification with mass spectrometry; mGlu1α immunoprecipitated with Af811-1 (three replicates) or Af660-1 (three replicates) and Dynabeads Protein-A from detergent lysates (0.5% deoxycholate, 1% NP-40, 0.1% SDS) of the mouse cerebellar P2 fraction; LC-MS/MS of eluates; proteins also found from Grm1-KO lysates removed

B1: solute carrier family 12 member 5 (protein, UniProt Q91V14-1 1-1138)
chain: MSRRFTVTSLPPAASAASADPESRRHSVADPRRLPREDVKGDGNPKESSPFINSTDTEKGREYDGRNMALFEEEMDTSPMVSSLLSGLANYTNLPQGSREHEEAENNEGGKKKPVQAPRMGTFMGVYLPCLQNIFGVILFLRLTWVVGIAGIMESFCMVFICCSCTMLTAISMSAIATNGVVPAGGSYYMISRSLGPEFGGAVGLCFYLGTTFAGAMYILGTIEILLAYLFPAMAIFKAEDASGEAAAMLNNMRVYGTCVLTCMATVVFVGVKYVNKFALVFLGCVILSILAIYAGVIKSAFDPPNFPICLLGNRTLSRHGFDVCAKLAWEGNETVTTRLWGLFCSSRLLNATCDEYFTRNNVTEIQGIPGAASGLIKENLWSSYLTKGVIVERRGMPSVGLADGTPVDMDHPYVFSDMTSYFTLLVGIYFPSVTGIMAGSNRSGDLRDAQKSIPTGTILAIATTSAVYISSVVLFGACIEGVVLRDKFGEAVNGNLVVGTLAWPSPWVIVIGSFFSTCGAGLQSLTGAPRLLQAISRDGIVPFLQVFGHGKANGEPTWALLLTACICEIGILIASLDEVAPILSMFFLMCYMFVNLACAVQTLLRTPNWRPRFRYYHWTLSFLGMSLCLALMFICSWYYALVAMLIAGLIYKYIEYRGAEKEWGDGIRGLSLSAARYALLRLEEGPPHTKNWRPQLLVLVRVDQDQNVVHPQLLSLTSQLKAGKGLTIVGSVLEGTFLDNHPQAQRAEESIRRLMEAEKVKGFCQVVISSNLRDGVSHLIQSGGLGGLQHNTVLVGWPRNWRQKEDHQTWRNFIELVRETTAGHLALLVTKNVSMFPGNPERFSEGSIDVWWIVHDGGMLMLLPFLLRHHKVWRKCKMRIFTVAQMDDNSIQMKKDLTTFLYHLRITAEVEVVEMHESDISAYTYEKTLVMEQRSQILKQMHLTKNEREREIQSITDESRGSIRRKNPANPRLRLNVPEETACDNEEKPEEEVQLIHDQSAPSCPSSSPSPGEEPEGERETDPEVHLTWTKDKSVAEKNKGPSPVSSEGIKDFFSMKPEWENLNQSNVRRMHTAVRLNEVIVNKSRDAKLVLLNMPGPPRNRNGDENYMEFLEVLTEQLDRVMLVRGGGREVITIYS
  binding: binds

B2: excitatory amino acid transporter 1 (protein, UniProt P56564 1-543)
chain: MTKSNGEEPRMGGRMERLQQGVRKRTLLAKKKVQSLTKEDVKSYLFRNAFVLLTVTAVIVGTILGFALRPYKMSYREVKYFSFPGELLMRMLQMLVLPLIISSLVTGMAALDSKASGKMGMRAVVYYMTTTIIAVVIGIIIVIIIHPGKGTKENMYREGKIVQVTAADAFLDLIRNMFPPNLVEACFKQFKTSYEKRSFKVPIQSNETLLGAVINNVSEAMETLTRIREEMVPVPGSVNGVNALGLVVFSMCFGFVIGNMKEQGQALREFFDSLNEAIMRLVAVIMWYAPLGILFLIAGKIVEMEDMGVIGGQLAMYTVTVIVGLLIHAVIVLPLLYFLVTRKNPWVFIGGLLQALITALGTSSSSATLPITFKCLEENNGVDKRITRFVLPVGATINMDGTALYEALAAIFIAQVNNFDLNFGQIITISITATAASIGAAGIPQAGLVTMVIVLTSVGLPTDDITLIIAVDWFLDRLRTTTNVLGDSLGAGIVEHLSRHELKNRDVEMGNSVIEENEMKKPYQLIAQDNEPEKPVADSETKM
  binding: binds
